Source: patent US20200325246A1
No constants are given. Whether binding was seen depends on the method and setting. Some entries that bind do so weakly or less than the wild type.

Biological target: Receptor tyrosine-protein kinase Erbb-2 (UniProt P04626)
Assay: flow cytometry on SKOV3 cells, Alexafluor 488 conjugate

- binding: binds
B1: chimeric A19 (antibody, V domains shown)
VH: QVKLQESGAELMKPGASVKISCKATGYTFSNYWIEWVKQRPGHGLEWIGEILPGSDSTNYNEKFKGKATFTADTSSNTAYMQLSSLTSEDSAVYYCARGGSNYGYYFDYWGQGTTVTVSS
VL: DILMTQSHKFMSTSVGDRVSIPCKASQDVGTAVAWYQQKPGQSPKLLIYWASTRHTGVPDRFTGSGSGTDFTLSISNVQSEDLADYFCQQYSSYRTFGGGTKLEIKR
